{
  "source": "the supplement of paper PMC11438910",
  "binders": {"B1": {"name": "4-127.4 (protein)", "chain 1": "QVQLQESGPGLVKPSETLSLTCGVSGYSISSGHGWSWIRQPPGKGLEWIGYVGGSSGNTNYNPSLKSRVTISKDTSKNQISLKLSSVTAADTAVYYCARRGISGTFGLVDYWGQGVLVTVSS", "chain 2": "QSVLTQPPSVSGAPGQRVTISCTGSSSNIGGYYVQWYQQLPGSAPKLLIYDNDQRPSGVSDRISGSRSGTSASLTITGLQSEDEADYYCQSFDSFLRGVLFGGGTRLTVL"}},
  "assay_in_all_cases": "fluorescence intensity of antibody binding to polysaccharide-coupled beads; higher = stronger binding",
  "key": {"[1]": {"molecular_target": "pneumococcal polysaccharide Pn6A"}, "[2]": {"molecular_target": "pneumococcal polysaccharide Pn6B"}, "[3]": {"molecular_target": "pneumococcal polysaccharide Pn6C"}, "[4]": {"molecular_target": "pneumococcal polysaccharide Pn6D"}, "[5]": {"molecular_target": "pneumococcal polysaccharide Pn7A"}, "[6]": {"molecular_target": "pneumococcal polysaccharide Pn7B"}, "[7]": {"molecular_target": "pneumococcal polysaccharide Pn7C"}, "[8]": {"molecular_target": "pneumococcal polysaccharide Pn7F"}, "[9]": {"molecular_target": "pneumococcal polysaccharide Pn8"}, "[10]": {"molecular_target": "pneumococcal polysaccharide Pn9A"}, "[11]": {"molecular_target": "pneumococcal polysaccharide Pn9L"}, "[12]": {"molecular_target": "pneumococcal polysaccharide Pn9N"}, "[13]": {"details": "antibody concentration 81.7561 ng/mL"}, "[14]": {"details": "antibody concentration 437.17 ng/mL"}, "[15]": {"details": "antibody concentration 2337.65 ng/mL"}, "[16]": {"details": "antibody concentration 12500 ng/mL"}, "[17]": {"details": "antibody concentration 0.1 ng/mL"}, "[18]": {"details": "antibody concentration 0.534724 ng/mL"}, "[19]": {"details": "antibody concentration 2.8593 ng/mL"}, "[20]": {"details": "antibody concentration 15.2894 ng/mL"}},
  "note": "This is one part of the list. The signal is at background level for most entries.",
  "data": [
    {"binder": "B1", "values": [
      {"measurement": "fluorescence intensity", "setting": "[1]; [13]", "value": 22, "unit": "MFI"},
      {"measurement": "fluorescence intensity", "setting": "[1]; [14]", "value": 25, "unit": "MFI"},
      {"measurement": "fluorescence intensity", "setting": "[1]; [15]", "value": 27.5, "unit": "MFI"},
      {"measurement": "fluorescence intensity", "setting": "[1]; [16]", "value": 35, "unit": "MFI"},
      {"measurement": "fluorescence intensity", "setting": "[2]; [17]", "value": 19.5, "unit": "MFI"},
      {"measurement": "fluorescence intensity", "setting": "[2]; [18]", "value": 18.2, "unit": "MFI"},
      {"measurement": "fluorescence intensity", "setting": "[2]; [19]", "value": 21.5, "unit": "MFI"},
      {"measurement": "fluorescence intensity", "setting": "[2]; [20]", "value": 19, "unit": "MFI"},
      {"measurement": "fluorescence intensity", "setting": "[2]; [13]", "value": 19.5, "unit": "MFI"},
      {"measurement": "fluorescence intensity", "setting": "[2]; [14]", "value": 21, "unit": "MFI"},
      {"measurement": "fluorescence intensity", "setting": "[2]; [15]", "value": 24.2, "unit": "MFI"},
      {"measurement": "fluorescence intensity", "setting": "[2]; [16]", "value": 31.5, "unit": "MFI"},
      {"measurement": "fluorescence intensity", "setting": "[3]; [17]", "value": 20.2, "unit": "MFI"},
      {"measurement": "fluorescence intensity", "setting": "[3]; [18]", "value": 19.5, "unit": "MFI"},
      {"measurement": "fluorescence intensity", "setting": "[3]; [19]", "value": 19.5, "unit": "MFI"},
      {"measurement": "fluorescence intensity", "setting": "[3]; [20]", "value": 37, "unit": "MFI"},
      {"measurement": "fluorescence intensity", "setting": "[3]; [13]", "value": 57.8, "unit": "MFI"},
      {"measurement": "fluorescence intensity", "setting": "[3]; [14]", "value": 64, "unit": "MFI"},
      {"measurement": "fluorescence intensity", "setting": "[3]; [15]", "value": 72.8, "unit": "MFI"},
      {"measurement": "fluorescence intensity", "setting": "[3]; [16]", "value": 80.5, "unit": "MFI"},
      {"measurement": "fluorescence intensity", "setting": "[4]; [17]", "value": 16, "unit": "MFI"},
      {"measurement": "fluorescence intensity", "setting": "[4]; [18]", "value": 17, "unit": "MFI"},
      {"measurement": "fluorescence intensity", "setting": "[4]; [19]", "value": 16, "unit": "MFI"},
      {"measurement": "fluorescence intensity", "setting": "[4]; [20]", "value": 16.5, "unit": "MFI"},
      {"measurement": "fluorescence intensity", "setting": "[4]; [13]", "value": 17, "unit": "MFI"},
      {"measurement": "fluorescence intensity", "setting": "[4]; [14]", "value": 16.5, "unit": "MFI"},
      {"measurement": "fluorescence intensity", "setting": "[4]; [15]", "value": 20.5, "unit": "MFI"},
      {"measurement": "fluorescence intensity", "setting": "[4]; [16]", "value": 23.5, "unit": "MFI"},
      {"measurement": "fluorescence intensity", "setting": "[5]; [17]", "value": 22, "unit": "MFI"},
      {"measurement": "fluorescence intensity", "setting": "[5]; [18]", "value": 20, "unit": "MFI"},
      {"measurement": "fluorescence intensity", "setting": "[5]; [19]", "value": 19.5, "unit": "MFI"},
      {"measurement": "fluorescence intensity", "setting": "[5]; [20]", "value": 20.5, "unit": "MFI"},
      {"measurement": "fluorescence intensity", "setting": "[5]; [13]", "value": 18.5, "unit": "MFI"},
      {"measurement": "fluorescence intensity", "setting": "[5]; [14]", "value": 21.5, "unit": "MFI"},
      {"measurement": "fluorescence intensity", "setting": "[5]; [15]", "value": 28, "unit": "MFI"},
      {"measurement": "fluorescence intensity", "setting": "[5]; [16]", "value": 79, "unit": "MFI"},
      {"measurement": "fluorescence intensity", "setting": "[6]; [17]", "value": 16, "unit": "MFI"},
      {"measurement": "fluorescence intensity", "setting": "[6]; [18]", "value": 16.5, "unit": "MFI"},
      {"measurement": "fluorescence intensity", "setting": "[6]; [19]", "value": 15.8, "unit": "MFI"},
      {"measurement": "fluorescence intensity", "setting": "[6]; [20]", "value": 17.2, "unit": "MFI"},
      {"measurement": "fluorescence intensity", "setting": "[6]; [13]", "value": 16.8, "unit": "MFI"},
      {"measurement": "fluorescence intensity", "setting": "[6]; [14]", "value": 16.5, "unit": "MFI"},
      {"measurement": "fluorescence intensity", "setting": "[6]; [15]", "value": 19, "unit": "MFI"},
      {"measurement": "fluorescence intensity", "setting": "[6]; [16]", "value": 28.8, "unit": "MFI"},
      {"measurement": "fluorescence intensity", "setting": "[7]; [17]", "value": 16, "unit": "MFI"},
      {"measurement": "fluorescence intensity", "setting": "[7]; [18]", "value": 16, "unit": "MFI"},
      {"measurement": "fluorescence intensity", "setting": "[7]; [19]", "value": 14.2, "unit": "MFI"},
      {"measurement": "fluorescence intensity", "setting": "[7]; [20]", "value": 15.8, "unit": "MFI"},
      {"measurement": "fluorescence intensity", "setting": "[7]; [13]", "value": 16, "unit": "MFI"},
      {"measurement": "fluorescence intensity", "setting": "[7]; [14]", "value": 16.2, "unit": "MFI"},
      {"measurement": "fluorescence intensity", "setting": "[7]; [15]", "value": 17, "unit": "MFI"},
      {"measurement": "fluorescence intensity", "setting": "[7]; [16]", "value": 23, "unit": "MFI"},
      {"measurement": "fluorescence intensity", "setting": "[8]; [17]", "value": 14.2, "unit": "MFI"},
      {"measurement": "fluorescence intensity", "setting": "[8]; [18]", "value": 13, "unit": "MFI"},
      {"measurement": "fluorescence intensity", "setting": "[8]; [19]", "value": 16, "unit": "MFI"},
      {"measurement": "fluorescence intensity", "setting": "[8]; [20]", "value": 15, "unit": "MFI"},
      {"measurement": "fluorescence intensity", "setting": "[8]; [13]", "value": 15.8, "unit": "MFI"},
      {"measurement": "fluorescence intensity", "setting": "[8]; [14]", "value": 16, "unit": "MFI"},
      {"measurement": "fluorescence intensity", "setting": "[8]; [15]", "value": 24, "unit": "MFI"},
      {"measurement": "fluorescence intensity", "setting": "[8]; [16]", "value": 62.5, "unit": "MFI"},
      {"measurement": "fluorescence intensity", "setting": "[9]; [17]", "value": 21, "unit": "MFI"},
      {"measurement": "fluorescence intensity", "setting": "[9]; [18]", "value": 21.5, "unit": "MFI"},
      {"measurement": "fluorescence intensity", "setting": "[9]; [19]", "value": 22, "unit": "MFI"},
      {"measurement": "fluorescence intensity", "setting": "[9]; [20]", "value": 22, "unit": "MFI"},
      {"measurement": "fluorescence intensity", "setting": "[9]; [13]", "value": 21.5, "unit": "MFI"},
      {"measurement": "fluorescence intensity", "setting": "[9]; [14]", "value": 23.8, "unit": "MFI"},
      {"measurement": "fluorescence intensity", "setting": "[9]; [15]", "value": 27, "unit": "MFI"},
      {"measurement": "fluorescence intensity", "setting": "[9]; [16]", "value": 41, "unit": "MFI"},
      {"measurement": "fluorescence intensity", "setting": "[10]; [17]", "value": 19.5, "unit": "MFI"},
      {"measurement": "fluorescence intensity", "setting": "[10]; [18]", "value": 19, "unit": "MFI"},
      {"measurement": "fluorescence intensity", "setting": "[10]; [19]", "value": 18.5, "unit": "MFI"},
      {"measurement": "fluorescence intensity", "setting": "[10]; [20]", "value": 18, "unit": "MFI"},
      {"measurement": "fluorescence intensity", "setting": "[10]; [13]", "value": 18, "unit": "MFI"},
      {"measurement": "fluorescence intensity", "setting": "[10]; [14]", "value": 19, "unit": "MFI"},
      {"measurement": "fluorescence intensity", "setting": "[10]; [15]", "value": 22, "unit": "MFI"},
      {"measurement": "fluorescence intensity", "setting": "[10]; [16]", "value": 33.2, "unit": "MFI"},
      {"measurement": "fluorescence intensity", "setting": "[11]; [17]", "value": 17.2, "unit": "MFI"},
      {"measurement": "fluorescence intensity", "setting": "[11]; [18]", "value": 18.8, "unit": "MFI"},
      {"measurement": "fluorescence intensity", "setting": "[11]; [19]", "value": 17.5, "unit": "MFI"},
      {"measurement": "fluorescence intensity", "setting": "[11]; [20]", "value": 18, "unit": "MFI"},
      {"measurement": "fluorescence intensity", "setting": "[11]; [13]", "value": 18.5, "unit": "MFI"},
      {"measurement": "fluorescence intensity", "setting": "[11]; [14]", "value": 18, "unit": "MFI"},
      {"measurement": "fluorescence intensity", "setting": "[11]; [15]", "value": 18.2, "unit": "MFI"},
      {"measurement": "fluorescence intensity", "setting": "[11]; [16]", "value": 25.5, "unit": "MFI"},
      {"measurement": "fluorescence intensity", "setting": "[12]; [17]", "value": 16, "unit": "MFI"},
      {"measurement": "fluorescence intensity", "setting": "[12]; [18]", "value": 15.5, "unit": "MFI"},
      {"measurement": "fluorescence intensity", "setting": "[12]; [19]", "value": 15.8, "unit": "MFI"},
      {"measurement": "fluorescence intensity", "setting": "[12]; [20]", "value": 16, "unit": "MFI"},
      {"measurement": "fluorescence intensity", "setting": "[12]; [13]", "value": 15.5, "unit": "MFI"},
      {"measurement": "fluorescence intensity", "setting": "[12]; [14]", "value": 16, "unit": "MFI"}
    ]}
  ]
}
